Source: doi:10.1101/2020.03.18.993774
These are yes or no findings as the source states them, for the method shown. Binding seen in cells or lysates may run through a third protein. Some entries that bind do so weakly or less than the wild type. Where a sequence is shown, tags or fusion partners need not be part of it.

Protein sequences, listed by entry. Tags and fused reporters are not part of them.
UniProt P06733, whole entry: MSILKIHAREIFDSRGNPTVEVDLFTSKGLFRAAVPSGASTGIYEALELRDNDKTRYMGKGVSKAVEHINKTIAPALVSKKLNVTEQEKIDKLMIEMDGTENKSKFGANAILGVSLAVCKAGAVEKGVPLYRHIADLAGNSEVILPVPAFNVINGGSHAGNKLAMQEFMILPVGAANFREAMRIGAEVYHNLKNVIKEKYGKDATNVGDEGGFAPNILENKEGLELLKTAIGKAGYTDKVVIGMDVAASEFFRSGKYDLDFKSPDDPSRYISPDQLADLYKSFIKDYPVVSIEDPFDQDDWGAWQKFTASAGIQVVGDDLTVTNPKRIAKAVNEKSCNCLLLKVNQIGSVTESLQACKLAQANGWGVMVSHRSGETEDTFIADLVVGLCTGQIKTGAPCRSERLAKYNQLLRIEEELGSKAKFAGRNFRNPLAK

Target: Enolase-1 (human (endogenous in H357)) (UniProt P06733)
Test: co-IP

B1: CKLF-like MARVEL transmembrane domain containing protein 6 (CMTM6) (protein, UniProt Q9NX76 1-183)
chain: MENGAVYSPTTEEDPGPARGPRSGLAAYFFMGRLPLLRRVLKGLQLLLSLLAFICEEVVSQCTLCGGLYFFEFVSCSAFLLSLLILIVYCTPFYERVDTTKVKSSDFYITLGTGCVFLLASIIFVSTHDRTSAEIAAIVFGFIASFMFLLDFITMLYEKRQESQLRKPENTTRAEALTEPLNA
For B1, the binding was “binds”.

B2: CMTM6 (Myc-DDK-tagged), from pCMV6-Entry-CMTM6 (protein, UniProt Q9NX76 1-183)
chain: B1 chain
For B2, the binding was “binds”.
